Laboratory results: the supplement of paper PMC10849652
This is one part of the list. Residues, ends and D or L forms follow the SMILES beside them. *: point of attachment. Cbz = O=C(OCc1ccccc1)*

The chains behind the UniProt entries cited, without tags or fusion partners. Where a name states a change or a piece, a line headed by the entry shows the natural chain unless it says otherwise.
UniProt O75448: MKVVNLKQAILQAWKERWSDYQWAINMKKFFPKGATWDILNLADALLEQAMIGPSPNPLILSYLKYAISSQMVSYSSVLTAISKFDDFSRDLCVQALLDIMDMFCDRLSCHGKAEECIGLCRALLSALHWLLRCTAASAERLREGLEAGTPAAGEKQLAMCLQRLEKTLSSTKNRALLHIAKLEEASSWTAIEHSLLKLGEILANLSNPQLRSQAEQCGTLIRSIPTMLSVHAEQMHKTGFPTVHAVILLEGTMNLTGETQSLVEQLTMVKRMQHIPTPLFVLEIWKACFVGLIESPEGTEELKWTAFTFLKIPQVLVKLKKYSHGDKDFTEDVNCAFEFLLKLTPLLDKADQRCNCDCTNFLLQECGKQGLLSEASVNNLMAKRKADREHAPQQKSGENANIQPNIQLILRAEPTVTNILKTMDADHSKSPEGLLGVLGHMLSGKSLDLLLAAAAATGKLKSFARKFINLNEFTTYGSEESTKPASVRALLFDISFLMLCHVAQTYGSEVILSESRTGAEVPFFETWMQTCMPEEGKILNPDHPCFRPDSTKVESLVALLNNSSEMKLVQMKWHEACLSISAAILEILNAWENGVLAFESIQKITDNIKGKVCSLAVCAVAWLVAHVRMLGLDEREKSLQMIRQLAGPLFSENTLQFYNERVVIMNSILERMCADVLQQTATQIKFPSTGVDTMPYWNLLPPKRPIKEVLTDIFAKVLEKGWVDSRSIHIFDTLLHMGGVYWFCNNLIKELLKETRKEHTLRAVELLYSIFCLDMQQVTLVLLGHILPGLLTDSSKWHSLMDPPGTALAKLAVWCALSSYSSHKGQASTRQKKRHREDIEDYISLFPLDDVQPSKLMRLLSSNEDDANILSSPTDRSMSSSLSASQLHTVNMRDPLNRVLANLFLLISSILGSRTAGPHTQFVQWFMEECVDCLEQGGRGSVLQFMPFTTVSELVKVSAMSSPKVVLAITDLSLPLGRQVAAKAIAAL
UniProt P40925: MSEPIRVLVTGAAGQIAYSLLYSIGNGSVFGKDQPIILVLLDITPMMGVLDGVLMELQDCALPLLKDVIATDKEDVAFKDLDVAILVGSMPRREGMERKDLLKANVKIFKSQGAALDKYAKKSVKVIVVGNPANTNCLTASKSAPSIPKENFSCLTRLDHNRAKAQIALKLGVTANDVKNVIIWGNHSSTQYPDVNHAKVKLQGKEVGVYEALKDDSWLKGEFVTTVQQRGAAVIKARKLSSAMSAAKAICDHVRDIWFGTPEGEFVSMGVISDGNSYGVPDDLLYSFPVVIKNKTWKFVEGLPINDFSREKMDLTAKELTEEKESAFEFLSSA
UniProt Q00266: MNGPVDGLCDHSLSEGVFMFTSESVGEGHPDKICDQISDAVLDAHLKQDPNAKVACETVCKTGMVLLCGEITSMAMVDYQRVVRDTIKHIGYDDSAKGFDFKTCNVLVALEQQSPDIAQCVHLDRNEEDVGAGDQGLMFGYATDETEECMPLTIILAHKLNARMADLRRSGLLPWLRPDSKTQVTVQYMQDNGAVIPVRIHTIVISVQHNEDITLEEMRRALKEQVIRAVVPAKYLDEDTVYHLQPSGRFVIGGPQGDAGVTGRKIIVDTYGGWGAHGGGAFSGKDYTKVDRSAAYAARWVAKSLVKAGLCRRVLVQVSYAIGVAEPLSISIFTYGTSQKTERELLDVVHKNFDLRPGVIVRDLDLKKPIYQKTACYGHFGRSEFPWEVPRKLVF
UniProt Q14696: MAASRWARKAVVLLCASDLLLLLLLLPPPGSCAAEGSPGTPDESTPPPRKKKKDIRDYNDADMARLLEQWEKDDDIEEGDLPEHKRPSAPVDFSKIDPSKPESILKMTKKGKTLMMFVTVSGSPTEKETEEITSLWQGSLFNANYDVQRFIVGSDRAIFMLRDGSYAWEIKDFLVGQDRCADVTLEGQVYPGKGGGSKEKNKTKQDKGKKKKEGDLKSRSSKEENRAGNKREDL
UniProt P33993, whole entry, looked up: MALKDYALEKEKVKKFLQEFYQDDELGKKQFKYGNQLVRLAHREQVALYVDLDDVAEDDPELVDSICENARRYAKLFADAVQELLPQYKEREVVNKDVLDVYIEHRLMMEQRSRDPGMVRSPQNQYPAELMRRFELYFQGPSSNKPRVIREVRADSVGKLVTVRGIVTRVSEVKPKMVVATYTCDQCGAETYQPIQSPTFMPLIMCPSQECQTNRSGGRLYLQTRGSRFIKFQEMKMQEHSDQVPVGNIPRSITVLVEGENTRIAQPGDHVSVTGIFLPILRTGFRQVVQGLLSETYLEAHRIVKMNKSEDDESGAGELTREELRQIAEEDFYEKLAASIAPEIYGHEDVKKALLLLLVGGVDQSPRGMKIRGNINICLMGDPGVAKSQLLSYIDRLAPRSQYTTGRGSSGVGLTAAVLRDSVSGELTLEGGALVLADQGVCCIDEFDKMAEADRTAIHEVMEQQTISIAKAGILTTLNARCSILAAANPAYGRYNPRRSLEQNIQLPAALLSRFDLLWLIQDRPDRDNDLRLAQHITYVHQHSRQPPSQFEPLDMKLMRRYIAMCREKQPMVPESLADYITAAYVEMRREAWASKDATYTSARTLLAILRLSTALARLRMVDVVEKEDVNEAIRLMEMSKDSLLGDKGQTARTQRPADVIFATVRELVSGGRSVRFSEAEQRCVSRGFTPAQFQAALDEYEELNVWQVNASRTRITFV
UniProt Q10469: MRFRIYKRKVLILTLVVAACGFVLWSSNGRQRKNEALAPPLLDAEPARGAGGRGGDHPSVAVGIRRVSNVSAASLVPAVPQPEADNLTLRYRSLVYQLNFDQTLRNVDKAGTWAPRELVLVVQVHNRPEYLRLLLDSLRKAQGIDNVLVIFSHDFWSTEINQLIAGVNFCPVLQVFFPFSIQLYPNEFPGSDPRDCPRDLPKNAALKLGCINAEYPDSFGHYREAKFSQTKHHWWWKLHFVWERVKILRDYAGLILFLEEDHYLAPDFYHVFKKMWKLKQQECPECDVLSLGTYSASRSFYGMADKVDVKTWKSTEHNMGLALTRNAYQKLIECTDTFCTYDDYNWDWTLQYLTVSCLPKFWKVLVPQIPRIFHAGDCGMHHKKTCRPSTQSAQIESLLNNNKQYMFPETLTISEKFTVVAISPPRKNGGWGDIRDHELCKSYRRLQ
UniProt P48163: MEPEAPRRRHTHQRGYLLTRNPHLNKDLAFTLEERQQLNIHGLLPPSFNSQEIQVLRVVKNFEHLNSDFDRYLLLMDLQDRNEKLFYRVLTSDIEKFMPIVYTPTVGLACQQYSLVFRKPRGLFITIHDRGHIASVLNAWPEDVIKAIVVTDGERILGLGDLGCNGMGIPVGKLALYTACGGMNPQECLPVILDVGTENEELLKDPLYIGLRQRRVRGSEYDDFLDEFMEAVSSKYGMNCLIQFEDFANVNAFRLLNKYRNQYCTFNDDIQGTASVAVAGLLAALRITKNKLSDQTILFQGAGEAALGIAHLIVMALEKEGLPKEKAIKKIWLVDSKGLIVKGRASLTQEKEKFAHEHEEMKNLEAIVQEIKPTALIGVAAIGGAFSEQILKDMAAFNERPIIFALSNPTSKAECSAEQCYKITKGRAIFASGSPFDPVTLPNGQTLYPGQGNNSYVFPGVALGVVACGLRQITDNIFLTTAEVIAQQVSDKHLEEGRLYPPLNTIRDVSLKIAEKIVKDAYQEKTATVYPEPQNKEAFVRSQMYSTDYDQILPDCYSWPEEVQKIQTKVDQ
UniProt P40926: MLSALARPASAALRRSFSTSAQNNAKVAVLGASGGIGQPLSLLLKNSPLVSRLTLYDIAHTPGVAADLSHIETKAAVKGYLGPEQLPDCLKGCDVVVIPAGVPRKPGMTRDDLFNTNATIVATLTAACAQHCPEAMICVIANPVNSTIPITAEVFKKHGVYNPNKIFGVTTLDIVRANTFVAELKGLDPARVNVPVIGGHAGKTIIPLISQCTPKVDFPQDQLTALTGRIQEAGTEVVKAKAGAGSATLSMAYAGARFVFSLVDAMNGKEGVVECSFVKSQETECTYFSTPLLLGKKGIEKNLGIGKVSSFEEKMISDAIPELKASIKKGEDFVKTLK
UniProt Q96HR3: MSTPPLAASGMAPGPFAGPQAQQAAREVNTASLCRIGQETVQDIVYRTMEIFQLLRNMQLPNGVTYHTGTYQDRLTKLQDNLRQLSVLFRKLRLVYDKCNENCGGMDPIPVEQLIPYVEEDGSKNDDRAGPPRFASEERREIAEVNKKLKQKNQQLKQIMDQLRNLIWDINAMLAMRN
UniProt Q99735: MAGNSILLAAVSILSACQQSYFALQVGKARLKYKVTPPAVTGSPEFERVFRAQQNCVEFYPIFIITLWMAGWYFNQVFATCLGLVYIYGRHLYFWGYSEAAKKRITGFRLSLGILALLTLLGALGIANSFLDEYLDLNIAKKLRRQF
UniProt Q6ZWT7: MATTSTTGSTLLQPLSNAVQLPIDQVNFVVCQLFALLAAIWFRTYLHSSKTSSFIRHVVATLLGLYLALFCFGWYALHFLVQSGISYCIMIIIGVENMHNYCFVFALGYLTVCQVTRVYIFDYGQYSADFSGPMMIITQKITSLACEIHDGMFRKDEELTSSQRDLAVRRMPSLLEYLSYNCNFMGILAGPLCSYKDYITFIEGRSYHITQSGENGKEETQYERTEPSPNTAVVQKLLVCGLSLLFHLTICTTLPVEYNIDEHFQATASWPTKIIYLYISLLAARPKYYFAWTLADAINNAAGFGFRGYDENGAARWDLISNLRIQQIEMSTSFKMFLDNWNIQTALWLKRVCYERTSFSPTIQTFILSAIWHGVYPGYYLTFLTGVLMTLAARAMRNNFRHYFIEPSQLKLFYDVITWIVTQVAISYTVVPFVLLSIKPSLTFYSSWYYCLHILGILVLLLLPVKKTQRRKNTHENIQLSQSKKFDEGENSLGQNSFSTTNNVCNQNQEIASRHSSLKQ
UniProt Q8IVS2: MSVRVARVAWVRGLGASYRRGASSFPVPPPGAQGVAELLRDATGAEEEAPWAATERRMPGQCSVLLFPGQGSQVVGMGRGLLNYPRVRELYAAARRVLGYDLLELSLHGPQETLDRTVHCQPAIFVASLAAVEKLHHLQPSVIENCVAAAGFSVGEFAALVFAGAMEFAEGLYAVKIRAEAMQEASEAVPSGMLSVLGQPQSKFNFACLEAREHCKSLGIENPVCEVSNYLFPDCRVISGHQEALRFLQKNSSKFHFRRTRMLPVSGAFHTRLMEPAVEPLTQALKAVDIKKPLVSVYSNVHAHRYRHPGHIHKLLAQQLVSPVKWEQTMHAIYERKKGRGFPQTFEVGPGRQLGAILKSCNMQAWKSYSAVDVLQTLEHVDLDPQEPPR
UniProt Q86V88: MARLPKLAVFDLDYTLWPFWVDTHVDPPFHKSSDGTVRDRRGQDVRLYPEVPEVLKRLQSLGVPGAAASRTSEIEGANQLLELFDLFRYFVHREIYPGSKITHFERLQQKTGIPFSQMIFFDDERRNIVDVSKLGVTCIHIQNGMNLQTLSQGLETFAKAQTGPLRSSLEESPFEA
UniProt Q9NZL9, whole entry, looked up: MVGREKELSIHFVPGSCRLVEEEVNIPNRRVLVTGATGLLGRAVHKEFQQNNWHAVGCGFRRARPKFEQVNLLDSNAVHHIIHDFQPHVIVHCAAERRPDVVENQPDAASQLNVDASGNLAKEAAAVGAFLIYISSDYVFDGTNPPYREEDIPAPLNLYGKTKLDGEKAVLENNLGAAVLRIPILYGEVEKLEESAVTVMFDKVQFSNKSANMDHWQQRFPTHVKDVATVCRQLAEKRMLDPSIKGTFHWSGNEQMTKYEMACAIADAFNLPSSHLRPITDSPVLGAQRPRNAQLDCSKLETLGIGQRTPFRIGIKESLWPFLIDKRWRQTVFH
UniProt P50579: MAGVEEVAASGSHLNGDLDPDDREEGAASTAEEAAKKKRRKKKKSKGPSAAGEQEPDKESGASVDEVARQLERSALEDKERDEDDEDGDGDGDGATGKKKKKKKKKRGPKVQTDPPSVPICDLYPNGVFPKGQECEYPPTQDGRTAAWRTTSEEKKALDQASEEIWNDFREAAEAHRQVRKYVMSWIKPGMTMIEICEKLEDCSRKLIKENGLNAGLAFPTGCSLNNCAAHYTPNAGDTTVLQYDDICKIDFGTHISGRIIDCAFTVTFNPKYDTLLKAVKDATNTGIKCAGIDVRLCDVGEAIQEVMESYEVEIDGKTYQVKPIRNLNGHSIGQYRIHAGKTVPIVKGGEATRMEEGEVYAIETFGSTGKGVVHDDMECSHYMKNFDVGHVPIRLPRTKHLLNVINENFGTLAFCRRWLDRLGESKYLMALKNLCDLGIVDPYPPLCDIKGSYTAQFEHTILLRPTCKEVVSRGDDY

How the values were obtained:
Assay in all cases: log2 fold change, soluble protein after heating vs DMSO (PISA); higher = thermal stabilisation; K562 cells, 10 uM, 30 min; active = over 0.2 and 3.5 SD of the protein, either way, in both replicates (recomputed)
[1] = compound: C#Cc1cccc(Nc2ncnc3cc(OCCOC)c(OCCOC)cc23)c1 [erlotinib]
In short: (§1)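 K562 cells at 2×10^6 cells/mL were treated with 10 μM compound for 30 min. Aliquots were heated for 3 min across 48°C-58°C, pooled, and extracted in PBS with 0.5% NP-40 at 4°C; soluble protein was the supernatant after 21,000xg for 90 min. Soluble protein was quantified by TMTpro 16plex LC-MS/MS with channel sums equalised, and reported as log2 fold change in thermal stability against DMSO controls, with values from duplicates.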

[2] = compound: C/C(=N\NC(=O)C1=CC(=CC=C1)S(=O)(=O)N2CCOCC2)/C3=C(C=CC(=C3)Cl)O
In short: as §1

[3] = compound: C1=CC(=C(C=C1Cl)C2=NC3=NC=CN=C3C(=N2)NC4=CC=NC=C4)F
In short: as §1

[4] = compound: C1=CC(=CC=C1C2=NC3=C(N2)C=C(C=C3)C(=O)N)OC4=CC=C(C=C4)Cl
In short: as §1

[5] = compound: C1=CC2=C(C=CC(=C2)/C=C\3/C(=O)NC(=NCC4=CC=CS4)S3)N=C1
In short: as §1

[6] = compound: C1=CC2=NC=CN=C2C=C1/C=C/3\C(=O)NC(=O)S3
In short: as §1

[7] = compound: C1=CC=C(C=C1)C2=NC(=C(N2)C3=CC=NC=C3)C4=CC(=C(C=C4)Cl)O
In short: as §1

[8] = compound: C1=CC=C2C(=C1)C3=NNC4=CC=CC(=C43)C2=O
In short: as §1

[9] = compound: C1CCN(C1)C(=O)NC2=CC=CC(=C2)NC3=NC=C(C(=N3)NCCC4=CN=CN4)Br
In short: as §1

[10] = compound: C1CN(CCC1(CC2=CC=C(C=C2)Cl)N)C3=NC=NC4=C3C=CN4
In short: as §1

[11] = compound: C1COCCN1CCN2C3=CC=CC=C3N=C2NC(=O)C4=CC(=CC=C4)[N+](=O)[O-] [IRAK-1-4 Inhibitor I]
In short: as §1

[12] = compound: C=CC(=O)N1CCC[C@@H](n2nc(-c3ccc(Oc4ccccc4)cc3)c3c(N)ncnc32)C1 [ibrutinib]
In short: as §1

[13] = compound: CC(=O)c1cnc2ccc(-c3cc(Cl)c(O)c(Cl)c3)nc2c1N[C@H]1CC[C@H](CN(C)C)CC1
In short: as §1

[14] = compound: CC(C)(C)Cn1c(N)nc2ccc(-c3[nH]c(C(C)(C)C)nc3-c3ccc(F)cc3)nc21 [ralimetinib]
In short: as §1

[15] = compound: CC(C)(O)CC(=O)NCCn1ccc2ncnc(Nc3ccc(Oc4cccc(C(F)(F)F)c4)c(Cl)c3)c21
In short: as §1

[16] = compound: CC(C)C1=C2N=C(C=C(N2N=C1)NCC3=CC=CC=C3)NCCCCCCN
In short: as §1

[17] = compound: CC(C)C[C@@H](C=O)NC(=O)[C@H](CC(C)C)NC(=O)[C@H](CC(C)C)NC(=O)OCc1ccccc1
In short: as §1

[18] = compound: CC(C)N(C[C@H]1O[C@@H](n2cnc3c(N)ncnc32)[C@H](O)[C@@H]1O)[C@H]1C[C@@H](CCc2nc3cc(C(C)(C)C)ccc3[nH]2)C1 [pinometostat]
In short: as §1

[19] = compound: CC1=C(C(CC(=O)N1)C2=CC=C(C=C2)C(F)(F)F)C(=O)NC3=C(C=C4C(=C3)C=NN4)F
In short: as §1

[20] = compound: CC1=C(C2=C(C=C1)C(=O)C3=CC=CC=C3N2CCCN)C
In short: as §1

Measured: log2 fold change

MED24 (UniProt O75448)
inactive: [1] -0.126 | [2] 0.114 | [3] -0.083 | [4] 0.043 | [5] 0.03 | [6] 0.009 | [7] -0.041 | [8] -0.051 | [9] -0.063 | [10] -0.018 | [11] -0.023 | [12] -0.024 | [13] -0.208 | [14] 0.018 | [15] -0.105 | [16] -0.117 | [17] 0.028 | [18] 0.135 | [19] -0.051 | [20] 0.16

MDH1 isoform 3 (UniProt P40925)
inactive: [1] -0.004 | [2] 0.007 | [3] 0.086 | [4] -0.019 | [5] -0.03 | [6] -0.02 | [7] -0.001 | [8] 0.009 | [9] 0.001 | [10] 0.018 | [11] 0.043 | [12] -0.002 | [13] 0.021 | [14] 0.026 | [15] 0.024 | [16] 0.061 | [17] -0.038 | [18] -0.067 | [19] -0.006 | [20] 0

MAT1A (UniProt Q00266)
inactive: [1] 0 | [2] -0.021 | [3] -0.008 | [4] 0.009 | [5] -0.066 | [6] 0.035 | [7] -0.051 | [8] -0.031 | [9] 0.02 | [10] 0.048 | [11] 0.042 | [12] 0.057 | [13] 0.009 | [14] -0.051 | [15] 0.041 | [16] 0.114 | [17] 0.08 | [18] -0.017 | [19] 0.014 | [20] -0.058

MESD (UniProt Q14696)
inactive: [1] -0.009 | [2] 0.015 | [3] 0.005 | [4] -0.013 | [5] -0.013 | [6] 0.03 | [7] -0.03 | [8] -0.018 | [9] 0.004 | [10] 0.003 | [11] 0.001 | [12] -0.041 | [13] 0.001 | [14] -0.146 | [15] 0.024 | [16] -0.008 | [17] -0.064 | [18] -0.006 | [19] 0.006 | [20] 0.028

MCM7 (UniProt P33993)
inactive: [1] -0.005 | [2] 0.058 | [3] 0.061 | [4] -0.005 | [5] -0.021 | [6] 0.008 | [7] 0.031 | [8] 0.012 | [9] -0.001 | [10] -0.002 | [11] 0.012 | [12] -0.009 | [13] -0.03 | [14] -0.007 | [15] -0.027 | [16] -0.082 | [17] -0.022 | [18] -0.031 | [19] 0.01 | [20] -0.019

MGAT2 (UniProt Q10469)
inactive: [1] 0.03 | [2] 0.117 | [3] 0.088 | [4] 0 | [5] 0.003 | [6] 0.045 | [7] 0.036 | [8] 0.052 | [9] -0.057 | [10] 0.007 | [11] 0.007 | [12] 0.039 | [13] -0.011 | [14] -0.026 | [15] -0.054 | [16] -0.11 | [17] 0.005 | [18] 0.007 | [19] -0.023 | [20] 0.067

ME1 (UniProt P48163)
inactive: [1] -0.02 | [2] -0.001 | [3] 0.02 | [4] -0.006 | [5] 0.051 | [6] 0.015 | [7] 0.014 | [8] -0.019 | [9] 0.028 | [10] 0.037 | [11] 0.025 | [12] 0.012 | [13] -0.011 | [14] -0.026 | [15] 0.002 | [16] 0.05 | [17] -0.002 | [18] -0.029 | [19] -0.028 | [20] 0.008

MCM4 (UniProt P33991)
inactive: [1] 0.019 | [2] 0.038 | [3] 0.058 | [4] 0.017 | [5] 0.044 | [6] 0.023 | [7] 0.036 | [8] 0.012 | [9] -0.026 | [10] -0.014 | [11] 0.004 | [12] -0.037 | [13] -0.055 | [14] -0.041 | [15] -0.038 | [16] -0.037 | [17] -0.022 | [18] -0.009 | [19] -0.001 | [20] -0.042

MDH2 (UniProt P40926)
inactive: [1] -0.041 | [2] 0.012 | [3] 0.018 | [4] 0.013 | [5] -0.026 | [6] -0.013 | [7] -0.025 | [8] -0.002 | [9] 0.032 | [10] 0.052 | [11] 0.056 | [12] 0.022 | [13] 0.008 | [14] -0.052 | [15] 0.033 | [16] 0.045 | [17] -0.022 | [18] -0.049 | [19] 0.03 | [20] -0.004

MED30 (UniProt Q96HR3)
inactive: [1] -0.111 | [2] 0.011 | [3] -0.059 | [4] -0.025 | [5] 0.013 | [6] 0.057 | [7] -0.045 | [8] -0.024 | [9] -0.03 | [10] -0.021 | [11] -0.037 | [12] 0.022 | [13] -0.048 | [14] -0.097 | [15] -0.035 | [16] -0.034 | [17] 0.046 | [18] 0.067 | [19] 0.036 | [20] 0.035

MGST2 (UniProt Q99735)
inactive: [1] -0.033 | [2] 0.032 | [3] -0.024 | [4] 0.049 | [5] 0.105 | [6] -0.011 | [7] 0.032 | [8] -0.043 | [9] -0.084 | [10] 0.053 | [11] 0.067 | [12] 0.032 | [13] 0.019 | [14] -0.052 | [15] 0.093 | [16] 0.049 | [17] 0.005 | [18] 0.015 | [19] 0.03 | [20] 0.067

MBOAT2 (UniProt Q6ZWT7)
inactive: [1] -0.013 | [2] 0 | [3] 0.008 | [4] 0.014 | [5] 0.037 | [6] 0.006 | [7] 0.023 | [8] -0.01 | [9] 0.022 | [10] 0.094 | [11] 0.018 | [12] -0.015 | [13] -0.023 | [14] 0.003 | [15] 0.026 | [16] 0.026 | [17] -0.061 | [18] 0.052 | [19] 0.009 | [20] 0.045

MCAT (UniProt Q8IVS2)
inactive: [1] -0.025 | [2] -0.019 | [3] -0.085 | [4] 0.029 | [5] 0.013 | [6] 0.034 | [7] 0.023 | [8] 0.031 | [9] 0.025 | [10] -0.01 | [11] -0.131 | [12] 0.007 | [13] -0.001 | [14] 0.038 | [15] 0.103 | [16] -0.028 | [17] 0.018 | [18] 0.038 | [19] 0.026 | [20] 0.091

MDP1 (UniProt Q86V88)
inactive: [1] 0.008 | [2] -0.017 | [3] 0.069 | [4] -0.01 | [5] 0.004 | [6] 0.059 | [7] 0.059 | [8] -0.041 | [9] 0.004 | [10] 0.017 | [11] 0.033 | [12] -0.026 | [13] 0.014 | [14] -0.068 | [15] 0.006 | [16] 0.109 | [17] -0.062 | [18] 0.02 | [19] 0.006 | [20] -0.131

MAT2B (UniProt Q9NZL9)
inactive: [1] 0.018 | [2] 0.024 | [3] 0 | [4] 0.012 | [5] 0.022 | [6] 0.005 | [7] -0.049 | [8] -0.004 | [9] -0.002 | [10] 0.02 | [11] 0.012 | [12] -0.001 | [13] -0.026 | [14] -0.05 | [15] 0.036 | [16] 0.049 | [17] -0.022 | [18] -0.027 | [19] 0.003 | [20] 0.048

METAP2 (UniProt P50579)
inactive: [1] 0 | [2] -0.036 | [3] -0.029 | [4] 0.036 | [5] 0.004 | [6] -0.024 | [7] 0.057 | [8] -0.026 | [9] -0.019 | [10] 0.03 | [11] 0.023 | [12] 0.048 | [13] 0.026 | [14] 0.028 | [15] 0.01 | [16] 0.039 | [17] -0.025 | [18] 0.014 | [19] 0.01 | [20] -0.045

Fetched one by one from the entries so far (two):
MAT2B (UniProt Q9NZL9)
inactive: [1] 0.018 | [2] 0.024 | [3] 0 | [4] 0.012 | [5] 0.022 | [6] 0.005 | [7] -0.049 | [8] -0.004 | [9] -0.002 | [10] 0.02 | [11] 0.012 | [12] -0.001 | [13] -0.026 | [14] -0.05 | [15] 0.036 | [16] 0.049 | [17] -0.022 | [18] -0.027 | [19] 0.003 | [20] 0.048

MCAT (UniProt Q8IVS2)
inactive: [1] -0.025 | [2] -0.019 | [3] -0.085 | [4] 0.029 | [5] 0.013 | [6] 0.034 | [7] 0.023 | [8] 0.031 | [9] 0.025 | [10] -0.01 | [11] -0.131 | [12] 0.007 | [13] -0.001 | [14] 0.038 | [15] 0.103 | [16] -0.028 | [17] 0.018 | [18] 0.038 | [19] 0.026 | [20] 0.091
